Assay results taken from publication doi:10.1101/613612.

Molecular target: T1, cLuc-AtPIP2a (Arabidopsis thaliana) (UniProt P43286)
T1 sequence: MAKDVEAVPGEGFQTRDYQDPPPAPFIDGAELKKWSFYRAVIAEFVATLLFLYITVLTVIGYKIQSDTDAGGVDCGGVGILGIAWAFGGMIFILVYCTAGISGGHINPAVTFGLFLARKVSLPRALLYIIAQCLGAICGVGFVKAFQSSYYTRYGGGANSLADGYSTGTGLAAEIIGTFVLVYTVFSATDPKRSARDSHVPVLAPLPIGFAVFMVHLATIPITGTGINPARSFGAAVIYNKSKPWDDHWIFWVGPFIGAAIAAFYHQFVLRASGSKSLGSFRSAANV
Experiment: split reporter

With Pti1b-nLuc (tomato) (enzyme) the binding was “no binding”.

These are yes or no findings as the source states them, for the method shown. Binding seen in cells or lysates may run through a third protein. Sequences can lack the tags named with a protein.
